Measurements from PubChem BioAssay AID504834 (National Center for Advancing Translational Sciences (NCATS), 2011).
Among all 320,000 compounds or so, about 22,000 (6.9%) were called active. The inconclusive results got no clear call from the source; some entries with a clear call stand among them for comparison. The call rests on the fitted dose curve; in most records, active means well fitted inhibition curve with a large enough effect; inconclusive means small, poorly fitted or top-dose-only effect, or another doubt; inactive means no such curve, though single readings can be large or run the other way. Potencies beside an inconclusive call are fits to weak or partial responses and may not hold up.

Test: Primary qHTS for delayed death inhibitors of the malarial parasite plastid, 96 hour incubation
Conditions: P. falciparum luciferase reporter growth; series mostly up to 28.7 µM
Outline: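 P. falciparum expressing integrated firefly luciferase, in erythrocytes at 2% hematocrit, 0.05% parasitemia, incubated with compounds 96 h at 37 C, 5% CO2. Growth inhibition read as loss of luminescence; two-generation exposure targets delayed-death apicoplast inhibitors.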
Potency means the concentration at half of the fitted maximal effect.

Structure (SMILES)	Potency
COc1ccc(N/C(C)=C2/C(=O)C(=O)N(CCO)C2c2ccc([N+](=O)[O-])cc2)cc1 (stereo not given)	inconclusive: 18.5 µM [inhibitor, single point]
O=C(Nc1cccnc1)c1cc(-c2cccc(Cl)c2)on1	inactive
Cc1ccc(Sc2nc(C)cc(C)c2S(C)(=O)=O)cc1	inconclusive: 16.5 µM [inhibitor, partial curve, poor fit]
Cc1ccccc1CC(=O)N1CC(C)OC(C)C1 (stereo not given)	inactive
CCn1ncc(C(=O)Nc2ccc(S(=O)(=O)N3CCCC3)cc2)c1C	inconclusive: 4.65 µM [inhibitor, partial curve]
O=C(C1=C(O)C(=O)N(c2ncccn2)C1c1ccc(Cl)cc1)c1ccco1 (stereo not given)	inconclusive: 0.465 µM [inhibitor, full curve, poor fit]
Cc1nn(C)c(C)c1/C=C/C(=O)O	inactive
COc1ccccc1-n1c(COc2ccccc2-c2ccccc2)nnc1SCC(=O)c1c(N)n(C)c(=O)n(C)c1=O	inconclusive: 18.5 µM [inhibitor, single point]
COc1cccc(-c2ncc3ccccc3c2COC(=O)N2CCCCC2)c1	inconclusive: 16.5 µM [inhibitor, single point]
O=C1CSC(c2ccccn2)N1c1ccc(F)cc1F (stereo not given)	inconclusive: 1.47 µM [inhibitor, partial curve, poor fit]
Cc1ccc2cccc(OCCCOc3ccccc3CO)c2n1	inactive
COc1ccc(Cl)cc1C(=O)C1CCCN(Cc2cnc(C)s2)C1 (stereo not given)	inconclusive: 10.4 µM [inhibitor, single point]
C=CCOc1ccc(/C=N/O)cc1Cl	active: 3.29 µM
COc1ccc(-n2nc([N+](=O)[O-])c(=NCCc3ccccc3)n2O)cc1	inactive
COc1ccc(OC)c(NS(=O)(=O)c2cccc3cccnc23)c1	inactive
Cn1c(=O)c2ncn(CC(=O)NCCOc3ccccc3)c2n(C)c1=O	inconclusive: 0.233 µM [inhibitor, full curve, poor fit]
Cc1ccc(C[n+]2ccccc2)cc1	inconclusive: 4.15 µM [inhibitor, single point]
CN(C)S(=O)(=O)c1ccc(C(=O)NNC(=O)c2ccccc2-n2cccc2)cc1	inconclusive: 18.5 µM [inhibitor, single point]
O=C(CCn1cnnn1)Nc1cccc(F)c1	inconclusive: 11.7 µM [inhibitor, single point]
c1cnc(N2CCSCC2)nc1	inactive
CC(C)(C)NC(=O)C(c1ccncc1)N(Cc1ccc(F)cc1)C(=O)c1ccc(-c2ccccc2)[nH]1 (stereo not given)	inconclusive: 5.86 µM [inhibitor, partial curve, poor fit]
Cc1ccc(C)c(N2CCN(C(=O)CCCn3c(=O)c4cccn4c4cccnc43)CC2)c1	active: 13.1 µM
COc1ccc(CCN(C)C2CCCN(C(=O)CCC(F)(F)F)C2)cc1OC (stereo not given)	inconclusive: 18.5 µM [inhibitor, partial curve, poor fit]

Molecules above with a nitro group on carbon (2):
Structure (SMILES)	Potency
COc1ccc(N/C(C)=C2/C(=O)C(=O)N(CCO)C2c2ccc([N+](=O)[O-])cc2)cc1 (stereo not given)	inconclusive: 18.5 µM [inhibitor, single point]
COc1ccc(-n2nc([N+](=O)[O-])c(=NCCc3ccccc3)n2O)cc1	inactive

Further records follow.

Structure (SMILES)	Potency
CC(C(=O)Nc1ccccc1C(=O)O)n1c(C(F)(F)F)nc2ccccc21 (stereo not given)	inconclusive: 0.0047 µM [inhibitor, full curve, poor fit]
NC(=O)c1cc([N+](=O)[O-])ccc1NCc1ccc(N)cc1	inconclusive: 10.4 µM [inhibitor, single point]
CC(C)(C)C(=O)/C=C(\N)c1ccncc1	inconclusive: 14.7 µM [inhibitor, partial curve, poor fit]
CN(C)Cc1nnnn1-c1cccc(-n2nnnc2CN(C)C)c1	inactive
O=C(c1ccc(-c2cc(Cl)ccc2Cl)o1)N1CCOCC1	inconclusive: 18.5 µM [inhibitor, single point]
CC(=O)OC(Cn1nc(C)cc1C)c1ccccc1 (stereo not given)	inconclusive: 1.04 µM [inhibitor, partial curve, poor fit]
COc1ccc(-c2[nH]ncc2CN(C)C(C)c2cccs2)c(F)c1 (stereo not given)	active: 11.7 µM
Cc1ccc(-c2noc(CCC(=O)Nc3cc(C)ccn3)n2)cc1	inconclusive: 1.04 µM [inhibitor, full curve, poor fit]
O=C(OCC(=O)N1CCCC1=O)c1ccc(Cl)cc1[N+](=O)[O-]	inactive
CCOc1cc(NC(=S)NCC2CCCO2)c(OCC)cc1NC(=O)c1ccccc1C (stereo not given)	inconclusive: 0.0657 µM [inhibitor, full curve, poor fit]
Cn1c(=O)c2c(nc(N3CCN(Cc4ccccc4)CC3)n2CCSc2ncccn2)n(C)c1=O	inconclusive: 18.5 µM [inhibitor, single point]
CN1C(=O)/C(=C/C=C2/CCCN2C)N(C)C1=S	active: 1.47 µM
O=C(NCCN1CCOCC1)c1cc(-c2ccc(F)cc2)nc2ccccc12	inactive
COc1ccc(C2N(C(=O)c3ccccc3)CCN2C(=O)c2ccc(C)cc2)cc1 (stereo not given)	inconclusive: 6.57 µM [inhibitor, partial curve, poor fit]
CCOc1ccccc1C(=O)Nc1cccc(-c2ccc3nncn3n2)c1	inconclusive: 11.7 µM [inhibitor, partial curve, poor fit]
N#Cc1sc2nc3c(cc2c1N)CCCC3	active: 11.7 µM
COc1ccccc1/C=C(/NC(=O)c1ccc(Cl)cc1Cl)C(=O)O	active: 8.28 µM
Cc1ccc(CCNC(=O)CN(C)S(=O)(=O)c2cnc[nH]2)cc1	inconclusive: 10.4 µM [inhibitor, partial curve]
CSCC[C@H](NC(=O)OC(C)(C)C)c1nnc(SCc2ccccc2)o1	inactive
COc1ccc(CCNC(=O)C2CCC(=O)N(C3CCCCCC3)C2)cc1 (stereo not given)	inconclusive: 10.4 µM [inhibitor, single point]
O=C(Nc1nnc(C2CC2)s1)c1cccc(S(=O)(=O)N2CCc3ccccc32)c1	inconclusive: 18.5 µM [inhibitor, partial curve, poor fit]
NNC(=O)CCS(=O)(=O)c1ccc2ccccc2c1	inconclusive: 18.5 µM [inhibitor, single point]
